Laboratory results: the supplement of paper PMC8256030
Several values for one entry are separate records, joined by “and”; a condition that tells them apart may be missing. Equal values may be shown once. Some of the results follow. This data set is noisy: repeats of one test often differ as much as different tests do.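 HEK293T cells were given each compound shortly before transfection with a reporter in which red mCherry is followed by the SARS-CoV-2 frameshift element and then GFP in the −1 frame, so GFP appears only after frameshifting.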

What follows are molecules tested on HEK293T (assay: percent viability (nuclei count) relative to control; higher = more viable cells). Settings: 10 µM; 24 h.

| Structure (SMILES) | percent viability |
| --- | --- |
| CCN(CC)C(=O)N1CCN(C)CC1 [diethylcarbamazine] | 183% |
| C[C@]12CC[C@@H]3c4ccc(OS(=O)(=O)O)cc4CC[C@H]3[C@@H]1CCC2=O | 267% |
| CC1=C[C@H](O)CC(C)(C)[C@H]1/C=C/C(C)=C/C=C/C(C)=C/C=C/C=C(C)/C=C/C=C(C)/C=C/C1=C(C)C[C@@H](O)CC1(C)C | 216% |
| C=C1[C@H](CO)[C@@H](O)C[C@@H]1n1cnc2c(=O)[nH]c(N)nc21 [Baraclude] | 151% |
| Nc1ccc(S(=O)(=O)Nc2cnc3ccccc3n2)cc1 | 193% |
| CN1CCC[C@@H]1Cc1c[nH]c2ccc(CCS(=O)(=O)c3ccccc3)cc12 | 97% |
| CN1C(=O)CC(c2ccccc2)C1=O (stereo not given) [phensuximide] | 299% |
| O=C(CCCN1CCC(O)(c2cccc(C(F)(F)F)c2)CC1)c1ccc(F)cc1 [trifluperidol] | 238% |
| COc1ccnc(C[S+]([O-])c2nc3cc(OC(F)F)ccc3[nH]2)c1OC (stereo not given) [Pantoprazole] | 214% and 116% |
| CC1(C)S[C@@H]2[C@H](NC(=O)[C@H](N)c3ccccc3)C(=O)N2[C@H]1C(=O)O | 192% |
| CNC1Cc2ccccc2N(C)c2ccccc21 (stereo not given) [metapramine] | 114% |
| CCCCCCCCCCCCCCCCNc1ccc(C(=O)O)cc1 [cetaben] | 85.7% |
| Cc1ccc(C(=O)N(CCCN)[C@@H](c2nc3cc(Cl)ccc3c(=O)n2Cc2ccccc2)C(C)C)cc1 [ispinesib] | 14.2% |
| O=C(O)CCc1nc(-c2ccccc2)c(-c2ccccc2)o1 [oxaprozin] | 351% |
| NC(=O)C[C@H](N)C(=O)O [L-Asparagine] | 23.1% |
| NCCCC[C@H](N[C@@H](CCc1ccccc1)C(=O)O)C(=O)N1CCC[C@H]1C(=O)O | 155% |
| CC(C)=CCC/C(C)=C/CC/C(C)=C/CCC(=O)OC/C=C(\C)CCC=C(C)C [gefarnate] | 160% |
| O=C(O)/C=C/C(=O)O | 181% |
| CN[C@@H]1[C@H](O[C@H]2[C@H](O[C@H]3[C@H](O)[C@@H](O)[C@H](N=C(N)N)[C@@H](O)[C@@H]3N=C(N)N)O[C@@H](C)[C@]2(O)C=O)O[C@@H](CO)[C@H](O)[C@H]1O [streptomycin] | 179% |
| Oc1ccc(Cl)c2c1CCC2 [clorindanol] | 192% |

| Structure (SMILES) | percent viability |
| --- | --- |
| O=C1CN(/N=C/c2ccc(-c3ccc([N+](=O)[O-])cc3)o2)C(=O)N1 | 275% |
| OC[C@@H](O)[C@@H](O)CO | 376% |
| NC(=O)N/N=C/c1ccc([N+](=O)[O-])o1 | 98.5% |
| CN[C@@H]1[C@H](O[C@H]2[C@H](O[C@H]3[C@H](O)[C@@H](O)[C@H](N=C(N)N)[C@@H](O)[C@@H]3N=C(N)N)O[C@@H](C)[C@]2(O)C=O)O[C@@H](CO)[C@H](O)[C@H]1O [Streptomycin] | 211% and 175% |
| Cc1nc2c(C)cccn2c(=O)c1CCN1CCC(c2noc3cc(F)ccc23)CC1 [ocaperidone] | 253% |
| CCN(CC)CC(=O)Nc1c(C)cccc1C [lidocaine] | 174% |
| CNC[C@H](O)c1ccc(O)c(O)c1 | 119% |
| CN(C)CCN(Cc1ccccc1)c1nc2ccccc2o1 [oxadimedine] | 228% |
| CC(C)(CO)[C@@H](O)C(=O)NCCCO [dexpanthenol] | 287% |
| Cc1c(Nc2ncccc2C(=O)O)cccc1C(F)(F)F | 315% |
| C=CCOC(Cn1ccnc1)c1ccc(Cl)cc1Cl (stereo not given) [enilconazole] | 94.4% |
| NCc1ccccc1CC(=O)N[C@@H]1C(=O)N2C(C(=O)O)=C(CSc3nnnn3CC(=O)O)CS[C@H]12 | 152% |
| CC1CC(OC(=O)C(O)c2ccccc2)CC(C)(C)N1C (stereo not given) | 131% |
| Cc1ccccc1C(=O)Nc1ccc(C(=O)N2CCCC(O)c3cc(Cl)ccc32)c(C)c1 (stereo not given) [tolvaptan] | 420% |
| COc1cc(OC)cc(OCCO)c1 [floverine] | 106% |
| COc1ccc(NS(=O)(=O)c2ccc(N)cc2)nn1 [sulfamethoxypyridazine] | 375% |
| CCN(CC)C(=O)C1(c2ccccc2)CC1CN (stereo not given) | 154% |
| C[C@@H](O)[C@@H]1NC(=O)[C@H](CCCCN)NC(=O)[C@@H](Cc2c[nH]c3ccccc23)NC(=O)[C@H](Cc2ccccc2)NC(=O)[C@@H](NC(=O)[C@H](N)Cc2ccccc2)CSSC[C@@H](C(=O)N[C@H](CO)[C@@H](C)O)NC1=O [Sandostatin] | 31.5% |
| Cc1cc(N)c2ccccc2[n+]1CCCCCCCCCC[n+]1c(C)cc(N)c2ccccc21 [dequalinium chloride] | 201% |
| CCN(CC)CCNC(=O)c1ccc(NS(C)(=O)=O)cc1 [sematilide] | 46.7% |

Some of the entries above in another layout.
Structure (SMILES),percent viability
OC[C@@H](O)[C@@H](O)CO,376%
CN[C@@H]1[C@H](O[C@H]2[C@H](O[C@H]3[C@H](O)[C@@H](O)[C@H](N=C(N)N)[C@@H](O)[C@@H]3N=C(N)N)O[C@@H](C)[C@]2(O)C=O)O[C@@H](CO)[C@H](O)[C@H]1O [Streptomycin],211% and 175%
